Experimental data taken from patent US20130225503A1, “TEX14 PEPTIDES AS NOVEL ANTITUMOR AGENTS” (Baylor Licnensing Group, priority 2009, published 2013).
Results are given in words; binding and its absence hold for the method and conditions named. Some entries that bind do so weakly or less than the wild type.

T1: mouse TEX14 amino acids 756 to 815, GPPX3Y-containing fragment (T4) (mouse) (UniProt Q7M6U3)
T1 sequence (looked up): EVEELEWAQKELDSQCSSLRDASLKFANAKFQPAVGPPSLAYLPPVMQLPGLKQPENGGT

T2: long C-terminal domain of mouse TEX14 (T3) (mouse) (UniProt Q7M6U3)
T2 sequence (looked up): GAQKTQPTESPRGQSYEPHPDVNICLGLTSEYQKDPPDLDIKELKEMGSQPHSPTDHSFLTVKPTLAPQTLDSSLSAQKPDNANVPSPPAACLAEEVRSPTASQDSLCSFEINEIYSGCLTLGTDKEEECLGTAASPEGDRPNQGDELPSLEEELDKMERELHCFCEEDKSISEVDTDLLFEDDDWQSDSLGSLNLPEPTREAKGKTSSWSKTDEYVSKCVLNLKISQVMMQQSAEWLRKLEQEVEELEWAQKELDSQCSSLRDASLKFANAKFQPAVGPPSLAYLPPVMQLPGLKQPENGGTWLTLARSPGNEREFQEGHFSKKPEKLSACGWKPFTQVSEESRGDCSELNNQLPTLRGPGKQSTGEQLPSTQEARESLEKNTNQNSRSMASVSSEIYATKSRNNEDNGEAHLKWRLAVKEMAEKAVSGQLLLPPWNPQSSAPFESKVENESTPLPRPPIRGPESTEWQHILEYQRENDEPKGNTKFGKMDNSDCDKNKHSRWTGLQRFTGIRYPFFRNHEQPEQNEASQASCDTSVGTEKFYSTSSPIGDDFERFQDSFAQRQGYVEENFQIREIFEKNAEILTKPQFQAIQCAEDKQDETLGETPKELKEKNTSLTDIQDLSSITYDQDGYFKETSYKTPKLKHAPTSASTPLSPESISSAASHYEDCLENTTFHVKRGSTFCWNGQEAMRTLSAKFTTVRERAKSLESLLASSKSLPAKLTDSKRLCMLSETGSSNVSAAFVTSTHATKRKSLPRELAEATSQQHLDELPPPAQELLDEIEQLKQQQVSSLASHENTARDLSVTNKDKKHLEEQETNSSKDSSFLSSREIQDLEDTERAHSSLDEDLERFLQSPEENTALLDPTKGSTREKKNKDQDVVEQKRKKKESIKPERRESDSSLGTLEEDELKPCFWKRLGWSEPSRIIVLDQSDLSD

T3: full-length mouse TEX14 (mouse, UniProt Q7M6U3 1-1450)
T3 construct: whole, on cells; In the yeast two-hybrid assay it stood as a fusion with a GAL4 domain (pGBKT7 bait or pGADT7 prey vector)
T3 sequence (looked up): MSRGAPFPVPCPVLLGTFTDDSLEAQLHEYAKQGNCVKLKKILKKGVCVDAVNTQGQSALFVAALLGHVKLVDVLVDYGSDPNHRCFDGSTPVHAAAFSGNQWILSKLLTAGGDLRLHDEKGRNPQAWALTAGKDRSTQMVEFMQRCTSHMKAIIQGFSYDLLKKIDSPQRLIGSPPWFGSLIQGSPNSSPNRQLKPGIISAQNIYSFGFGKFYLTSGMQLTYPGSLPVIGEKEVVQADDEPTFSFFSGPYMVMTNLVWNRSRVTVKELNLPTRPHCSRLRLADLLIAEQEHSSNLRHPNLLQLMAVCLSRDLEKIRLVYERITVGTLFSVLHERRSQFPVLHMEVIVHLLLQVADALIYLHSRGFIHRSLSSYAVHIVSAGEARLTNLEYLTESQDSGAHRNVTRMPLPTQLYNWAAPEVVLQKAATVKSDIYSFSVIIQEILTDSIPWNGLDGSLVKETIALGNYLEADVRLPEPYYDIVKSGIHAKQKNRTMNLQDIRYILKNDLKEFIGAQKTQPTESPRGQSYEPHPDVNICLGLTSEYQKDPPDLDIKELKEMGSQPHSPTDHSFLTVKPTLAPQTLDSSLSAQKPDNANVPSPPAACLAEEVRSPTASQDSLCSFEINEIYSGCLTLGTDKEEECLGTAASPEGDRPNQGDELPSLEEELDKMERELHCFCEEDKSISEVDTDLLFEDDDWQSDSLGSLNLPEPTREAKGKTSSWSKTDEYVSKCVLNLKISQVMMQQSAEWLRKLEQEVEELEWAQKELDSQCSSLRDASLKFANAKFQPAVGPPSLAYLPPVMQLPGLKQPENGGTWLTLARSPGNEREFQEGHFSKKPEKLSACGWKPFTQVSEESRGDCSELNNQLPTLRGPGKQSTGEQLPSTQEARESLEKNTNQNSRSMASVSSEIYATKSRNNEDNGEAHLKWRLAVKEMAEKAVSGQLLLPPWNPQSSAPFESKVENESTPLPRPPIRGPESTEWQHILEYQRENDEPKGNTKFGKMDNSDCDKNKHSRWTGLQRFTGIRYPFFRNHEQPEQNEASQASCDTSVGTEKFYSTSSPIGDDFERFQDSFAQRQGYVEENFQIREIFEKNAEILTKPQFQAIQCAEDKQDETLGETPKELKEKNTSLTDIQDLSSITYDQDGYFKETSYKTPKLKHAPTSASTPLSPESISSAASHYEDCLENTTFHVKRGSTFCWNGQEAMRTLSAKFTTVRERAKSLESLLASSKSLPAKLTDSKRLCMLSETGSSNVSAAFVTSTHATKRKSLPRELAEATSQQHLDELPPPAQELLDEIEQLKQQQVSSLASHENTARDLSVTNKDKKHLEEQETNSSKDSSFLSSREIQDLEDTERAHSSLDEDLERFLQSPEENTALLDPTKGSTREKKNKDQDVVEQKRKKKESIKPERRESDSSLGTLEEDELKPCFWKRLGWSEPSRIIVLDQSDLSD

T4: 80-amino-acid fragment of mouse CEP55 that contains the hinge region (C1) (mouse) (UniProt Q8BT07)
T4 sequence (looked up): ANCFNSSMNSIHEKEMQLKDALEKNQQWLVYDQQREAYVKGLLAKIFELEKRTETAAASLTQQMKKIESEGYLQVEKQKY

B1: 80-amino-acid fragment of mouse CEP55 that contains the hinge region (C1) (protein, UniProt Q8BT07 157-236, looked up)
chain: T4 sequence (looked up)
B2: mouse TEX14 amino acids 756 to 815, GPPX3Y-containing fragment (T4) (peptide, UniProt Q7M6U3 756-815, looked up)
chain: T1 sequence (looked up)
notes: range 756-815; Yeast two-hybrid GAL4 fusion; also called TEX14-T4

Tests used:
[1] = biological target: T1, mouse TEX14 amino acids 756 to 815, GPPX3Y-containing fragment (T4) (mouse); experiment: yeast two-hybrid
[2] = biological target: T2, long C-terminal domain of mouse TEX14 (T3) (mouse); experiment: yeast two-hybrid
full-length mouse TEX14 = biological target: T3, full-length mouse TEX14; experiment: yeast two-hybrid
[3] = biological target: T4, 80-amino-acid fragment of mouse CEP55 that contains the hinge region (C1) (mouse); experiment: figure legend: yeast two-hybrid

Binder	binding [1]	binding [2]	binding (full-length mouse TEX14)	binding [3]
B1	binds	binds	binds	
B2				binds
